Experimental data from paper PMC4957051, “Molecular Mechanism of Z α1-Antitrypsin Deficiency*” (The Journal of Biological Chemistry, 2016).
Results are given in words; binding and its absence hold for the method and conditions named. Some binding calls cover weakened binding; strength is not graded here.

Protein sequences, listed by entry. Tags and fused reporters are not part of them. Lines headed by an entry give the natural chain unless they say otherwise; changes in a name come on top. Chains listed by the source or under a name are the forms on record and can include a tag or linker.
plasma-derived Z α1-antitrypsin (E342K) (P01009, form named): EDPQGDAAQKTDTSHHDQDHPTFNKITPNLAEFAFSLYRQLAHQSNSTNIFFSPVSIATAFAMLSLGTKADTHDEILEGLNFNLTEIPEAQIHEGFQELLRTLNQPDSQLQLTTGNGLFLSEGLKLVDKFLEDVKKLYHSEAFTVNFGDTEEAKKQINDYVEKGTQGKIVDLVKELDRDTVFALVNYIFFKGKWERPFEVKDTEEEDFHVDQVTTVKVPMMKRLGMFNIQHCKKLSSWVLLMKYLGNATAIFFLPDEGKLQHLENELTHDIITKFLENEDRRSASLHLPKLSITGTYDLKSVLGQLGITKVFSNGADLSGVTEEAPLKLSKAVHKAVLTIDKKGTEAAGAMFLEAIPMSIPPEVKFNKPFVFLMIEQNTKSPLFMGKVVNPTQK

Target: plasma-derived Z α1-antitrypsin (E342K) (human) (UniProt P01009)
Experiment: native gel or EMSA; peptide annealing: α1-AT variants (0.5 mg/ml) incubated with 100-fold molar excess of 6-mer peptide at 37 °C for different time intervals, then 8% native gel with 7 M urea; the binary complex resists urea; both purified

## FLEAIG [6-mer peptide (FLEAIG) derived from the P7 to P2 sequence of the α1-AT reactive loop]
  binding: binds
